{
  "source": "paper PMC5996148",
  "experiment_in_all_cases": "protein microarray (ProtoArray v5.0), streptavidin-Alexa Fluor 647",
  "conditions_in_all_cases": "3'-biotin; 20 mM Tris (pH 7.5), 5 mM MgCl2, 100 mM KCl, 0.1% Tween-20, A/T-rich and random oligonucleotide blockers; temperature not stated; high values mean tight binding",
  "key": {"[1]": {"tested_on": "Interleukin-22 (human)"}, "[2]": {"tested_on": "Interleukin-24 (human)"}, "[3]": {"tested_on": "JmjC domain-containing protein 4 (human)"}, "[4]": {"tested_on": "Jouberin (human)"}, "[5]": {"tested_on": "Junction plakoglobin (human)"}, "[6]": {"tested_on": "Junctional adhesion molecule C (human)"}, "[7]": {"tested_on": "KCNE1L (human)"}, "[8]": {"tested_on": "KCNIP1 (human)"}, "[9]": {"tested_on": "KCNIP2 (human)"}, "[10]": {"tested_on": "KCNK7 (human)"}},
  "note": "Several values for one entry are separate records, joined by “and”; a condition that tells them apart may be missing. Identical values can stand only once. The list shows a part of the results.",
  "data": [
    {"sequence": "GGGGACAGGGGTATGGGGAGGGG [G4-3 biotinylated (CtG)]", "values": [
      {"measurement": "binding signal", "setting": "[1]", "result": -0.32, "unit": "z-score"},
      {"measurement": "binding signal", "setting": "[2]", "result": -0.325, "unit": "z-score"},
      {"measurement": "binding signal", "setting": "[3]", "result": -0.317, "unit": "z-score"},
      {"measurement": "binding signal", "setting": "[4]", "result": 3.49, "unit": "z-score"},
      {"measurement": "binding signal", "setting": "[5]", "result": -0.308, "unit": "z-score"},
      {"measurement": "binding signal", "setting": "[6]", "result": -0.321, "unit": "z-score"},
      {"measurement": "binding signal", "setting": "[7]", "result": -0.325, "unit": "z-score"},
      {"measurement": "binding signal", "setting": "[8]", "result": -0.334, "unit": "z-score"},
      {"measurement": "binding signal", "setting": "[9]", "result": "-0.33 z-score and -0.318 z-score and -0.343 z-score"},
      {"measurement": "binding signal", "setting": "[10]", "result": -0.318, "unit": "z-score"}
    ]}
  ]
}
